# Results deposited as PubChem BioAssay AID504784 (Drosophila RNAi Screening Center, 2011)
# Test: 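Genome-wide knock-down for genes giving too much or too little stored lipid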 (primary screen)
# System: Drosophila Kc167 embryonic cells
# Reagent: long dsRNA against Drosophila genes, about 250 ng dsRNA per well
# Timing: 4 days
# Challenge: cells fed 400 µM oleic acid bound to BSA
# Detection: 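Microscope images give a droplet-to-nucleus area ratio, taken as log and converted to a screen-wide B-score; higher values mean greater lipid storage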
# Scale: droplet/nuclear area B-score: higher = more stored lipid (overstorage)
# The screen tested about 17,000 reagents; this is a random part of those with a known target gene and a result. 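Each column is one replicate's B-score; the combined score over replicates was not deposited, so single values may mislead.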 A plus sign joins genes that one reagent is predicted to hit. No sequences are given here.
Gene,amplicon,"droplet/nuclear area B-score, replicate 1","droplet/nuclear area B-score, replicate 2","droplet/nuclear area B-score, replicate 3"
CG42700,DRSC06292,-1.18,1.1,
CG42700,DRSC06293,-0.822,-1.33,
CG42700,DRSC23109,-1.28,-0.141,
CG14983,DRSC08441,-1.43,-1.13,
tap (target of Poxn),DRSC11402,0.0202,1.48,
TppII (Tripeptidyl-peptidase II),DRSC07565,1.55,1.65,
CG12374,DRSC06143,-0.295,-0.00238,
knrl (knirps-like),DRSC11892,-0.775,0.68,0.223
knrl (knirps-like),DRSC23245,-0.459,0.722,
CG7394,DRSC10835,1.25,1.11,
CG5768,DRSC15870,-0.429,-0.0116,
hang (hangover),DRSC19901,0.341,1.4,2.33
hang (hangover),DRSC19902,1.04,-0.571,
hang (hangover),DRSC23216,0.349,-0.0343,
CG11878,DRSC14422,0.247,-0.658,
Nrk (Neurospecific receptor kinase),DRSC07480,-0.497,-1.75,
lncRNA:CR32553 (long non-coding RNA:CR32553),DRSC19229,0.694,-0.22,
CG13300,DRSC09974,2.34,2.71,
Gr39b (Gustatory receptor 39b),DRSC01848,0.231,-1.39,-1.47
beag,DRSC15296,0.674,0.148,
Mid1,DRSC04230,-1.74,-1.54,-0.625
Mid1,DRSC04231,0.231,-0.476,
Mid1,DRSC04308,1.77,4.51,
Mid1,DRSC22773,-2.81,-0.708,
Mid1,DRSC22803,0.614,-2.33,
Or22c (Odorant receptor 22c),DRSC00766,0.49,0.564,
Atat (alpha-tubulin acetylase),DRSC10392,0.09,-0.848,
Sbf (SET domain binding factor),DRSC16852,-0.9,-5.96,
Orco (Odorant receptor co-receptor),DRSC12358,-0.0164,-0.227,
MRP (Multidrug-Resistance like Protein 1),DRSC02942,0.947,1.33,
CG5808,DRSC14124,9.47,0.715,
CG1750,DRSC15240,0.644,,
RIOK2 (RIO kinase 2),DRSC14413,-1.76,0.639,
CG11726,DRSC09858,0.38,0.281,
CG15207 (retired record),DRSC19653,-1.64,-0.292,0.657
CG15207 (retired record),DRSC22791,0.288,1.25,
Fad2,DRSC11165,0.617,-0.828,
CG2921,DRSC04324,-1.4,0.268,
IP3K1 + hpRNA:CR18854,DRSC23313,-0.656,-2.17,
Toll-6,DRSC11304,1.47,4.3,
shv (shriveled),DRSC00640,0.253,1.01,
shv (shriveled),DRSC22122,-0.718,-1.25,
CG18063,DRSC01968,0.015,0.424,
CG30114,DRSC05707,-0.553,-1.58,
"Pka-C2 (Protein kinase, cAMP-dependent, catalytic subunit 2)",DRSC16790,1.28,-2.01,
"Pka-C2 (Protein kinase, cAMP-dependent, catalytic subunit 2)",DRSC23310,,0.545,
Qsox1 (Quiescin sulfhydryl oxidase 1),DRSC06878,-0.798,0.927,-3.17
CG34347,DRSC14305,-0.201,2.69,
CG34347,DRSC15104,-0.45,1.75,
CG34347,DRSC15105,-1.18,-0.463,
CG34347,DRSC23044,-0.0255,-1.49,
CG8260,DRSC20098,0.0775,0.359,
LKRSDH (Lysine ketoglutarate reductase/saccharopine dehydrogenase),DRSC03015,0.214,1.82,
l(2)dtl (lethal-(2)-denticleless),DRSC04697,-1.2,0.059,
mldr (mulder),DRSC18100,-0.00135,-0.097,
CG15824,DRSC00473,-0.0567,0.349,
wit (wishful thinking),DRSC08741,0.11,-0.788,
Ilp2 (Insulin-like peptide 2),DRSC10968,-0.314,0.471,
CG17261,DRSC00498,-0.0473,0.133,
Scgdelta (Sarcoglycan delta),DRSC18544,0.0468,0.94,
Mst84Dc (Male-specific RNA 84Dc),DRSC12599,-0.348,0.34,
CG32751,DRSC21770,-1.3,1.03,
CG11168,DRSC14292,-0.758,-0.0585,
CG1909,DRSC17150,0.496,0.681,
Vha26 (Vacuolar H[+]-ATPase 26kD subunit),DRSC12371,0.0272,-1.06,
CG14245,DRSC14740,1.17,-1.58,
eIF3f1 (eukaryotic translation initiation factor 3 subunit f1),DRSC12328,3.13,3.21,
CG17290,DRSC06662,-1.97,0.33,
CG30187,DRSC22461,0.28,-0.197,
Tmem214 (Transmembrane protein 214),DRSC02924,-0.541,0.095,
Tmem214 (Transmembrane protein 214),DRSC02925,0.223,0.212,
CG30349,DRSC06421,0.065,2.2,
CG30349,DRSC06839,-0.0436,-0.6,
CG31198,DRSC15891,-1.4,3.44,
CG2162,DRSC08557,1.22,1.74,
shd (shade),DRSC11129,-1.24,-0.0554,
CG2736,DRSC04314,-0.153,0.872,
DMAP1 (DNA methyltransferase 1 associated protein 1),DRSC06044,2.64,2.09,
Creld (Cysteine rich with EGF like domains),DRSC00308,-0.424,-3.66,
CG32726,DRSC17521,-1.11,-1.15,
CG10973,DRSC09813,-0.657,-0.359,
scat (scattered),DRSC02722,-0.0808,-0.365,
CG34178 + CG34177,DRSC00351,1.06,-1.66,
